Results: PMC11868986, “Identification of Schizophrenia‐Risk Regulatory Variant rs1399178 in the Non‐coding Region With Its Impact on NRF1 Binding”

Legend:
[1] = molecular target: T1, NRF1 (SH-SY5Y nuclear extract) (UniProt Q16656); assay: EMSA supershift; settings: anti-NRF1 antibody, EMSA: Thermo 20148 kit, protein in an extract, label: 3' biotin
T1 sequence (looked up, limits assumed): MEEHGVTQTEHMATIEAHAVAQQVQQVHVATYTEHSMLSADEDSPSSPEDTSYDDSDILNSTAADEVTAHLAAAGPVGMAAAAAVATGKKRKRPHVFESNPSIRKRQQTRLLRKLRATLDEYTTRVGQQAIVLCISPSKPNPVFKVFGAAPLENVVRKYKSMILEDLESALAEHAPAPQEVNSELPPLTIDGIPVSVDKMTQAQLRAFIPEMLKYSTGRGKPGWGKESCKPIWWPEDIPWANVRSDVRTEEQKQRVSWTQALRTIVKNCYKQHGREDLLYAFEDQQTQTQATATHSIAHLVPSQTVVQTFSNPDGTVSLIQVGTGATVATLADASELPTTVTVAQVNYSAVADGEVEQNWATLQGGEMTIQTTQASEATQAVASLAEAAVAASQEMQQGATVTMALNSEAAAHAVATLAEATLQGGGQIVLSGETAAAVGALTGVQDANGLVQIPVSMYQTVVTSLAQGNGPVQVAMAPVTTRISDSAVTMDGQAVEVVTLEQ

[2] = molecular target: T1, NRF1 (SH-SY5Y nuclear extract); assay: EMSA; settings: band 1 weaker than with G allele, competition also shows G preference, EMSA: Thermo 20148 kit, protein in an extract, label: 3' biotin

Sequence: CACCCTCCTGGGCGCAGCCGCAGCTGCCCAAACTGCA (double strand) [rs1399178-G EMSA probe]
- binding result [1]: binds

Sequence: CACCCTCCTGGGCGCAGCCACAGCTGCCCAAACTGCA (double strand) [rs1399178-A EMSA probe]
- binding result [2]: binds more weakly

Construct, isoform or probe ends are uncertain for at least one entry. Where cells or extracts were used, other partners may take part. For some assays here: A weaker result is weaker than the reference pair of the same experiment. Tags and fusion partners may be left off the protein sequences shown.
